PubChem BioAssay AID720505 – Drosophila RNAi Screening Center, 2013
Screen: 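Knock-downs that reduce calcium influx once internal stores are emptied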 (primary screen). System: Drosophila S2R+ cells. Reagents: long dsRNA against Drosophila genes. Treatment: thapsigargin (2 µM) in calcium-free buffer to empty internal stores, then 2 mM calcium added back. Read-out: 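Stores emptied by 2 µM thapsigargin without calcium, then 2 mM calcium re-added; fluo-4 fluorescence followed by FLIPR in 384-well plates, per-well averaged endpoint, raw; two screen passes, some wells retested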. Direction: calcium signal: higher = more calcium entry after store depletion. Hit rule: 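Knock-downs counted as hits when calcium entry dropped relative to STIM1 positive and Rho1 negative controls present on each plate; roughly 1500 genes called, with reductions of differing size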. Calls: active = called as lowering calcium entry; inactive = not called.
In all, the deposit lists about 20,000 reagents; below is an unselected part of those with a known target gene and a result. In the full data, about 2,100 (10%) are marked active. 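Raw plate signals without normalisation; calls rest on control-based scores that were not deposited; replicate 2 separates called from uncalled poorly.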 Entries without a mark were called inactive. Reagents against one gene are numbered here. Not stated in the record: the amount of reagent, the time to read-out.

predicted target | reagent no. | calcium signal, replicate 1 | calcium signal, replicate 2
Pgm2b (Phosphoglucomutase 2b) | 1 | 166 | 124
CG10560 | 1 | 263 | 117
CG8369 | 1 | 125 | 108
Chs2 (Chitin synthase 2) | 1 | 87.5 | 147
CG6144 | 1 | 70.6 | 80.2
Twdlbeta (Tweedlebeta) | 1 | 107 | 213
grn (grain) | 1 | 128 | 147
foi (fear-of-intimacy) | 1 | 102 | 63.2
FASN2 (Fatty acid synthase 2) | 1 | 81.1 | 185
FASN2 (Fatty acid synthase 2) | 2 | 139 | 169
loj (logjam) | 1 | 97 | 140
CG33493 | 1 | 69 | 82.1
grh (grainy head) | 1 | 90.9 | 101
grh (grainy head) | 2 | 136 | 112
grh (grainy head) | 3 | 169 | 106
grh (grainy head) | 4 | 122 | 129
Delta | 1 | 221 | 180
Nup93-2 (Nucleoporin 93kD-2) | 1 | 144 | 98.5
CG31915 | 1 | 114 | 129
CG30001 | 1 | 124 | 146
mex1 (midgut expression 1) | 1 | 90.5 | 89.4
Pif1 (Pif1 DNA helicase) | 1 | 144 | 199
spel1 (spellchecker1) | 1 | 74.2 | 108
UQCR-Q (Ubiquinol-cytochrome c reductase ubiquinone-binding protein) | 1 | 81.6 | 143
CG34040 | 1 | 87.4 | 6642
CG3358 | 1 | 177 | 96.3
neb (nebbish) | 1 | 62.3 (active) | 133
cu (curled) | 1 | 86.4 | 108
cu (curled) | 2 | 104 | 90.8
Serinc (Serine incorporator) | 1 | 127 | 72.4
CG4597 | 1 | 111 | 97.2
CG13081 | 1 | 176 | 88.7
CG14418 | 1 | 82.4 | 138
CG14418 | 2 | 104 | 149
